Laboratory results as given in PMC6139139.
Results are given in words; binding and its absence hold for the method and conditions named. Binding seen in cells or lysates may run through a third protein. Some binding calls cover weakened binding; strength is not graded here. Values belong to the binder of their own block, whether it stands above or below them.

Amino acid sequences for entries named in this document (tags omitted).
UniProt P26450: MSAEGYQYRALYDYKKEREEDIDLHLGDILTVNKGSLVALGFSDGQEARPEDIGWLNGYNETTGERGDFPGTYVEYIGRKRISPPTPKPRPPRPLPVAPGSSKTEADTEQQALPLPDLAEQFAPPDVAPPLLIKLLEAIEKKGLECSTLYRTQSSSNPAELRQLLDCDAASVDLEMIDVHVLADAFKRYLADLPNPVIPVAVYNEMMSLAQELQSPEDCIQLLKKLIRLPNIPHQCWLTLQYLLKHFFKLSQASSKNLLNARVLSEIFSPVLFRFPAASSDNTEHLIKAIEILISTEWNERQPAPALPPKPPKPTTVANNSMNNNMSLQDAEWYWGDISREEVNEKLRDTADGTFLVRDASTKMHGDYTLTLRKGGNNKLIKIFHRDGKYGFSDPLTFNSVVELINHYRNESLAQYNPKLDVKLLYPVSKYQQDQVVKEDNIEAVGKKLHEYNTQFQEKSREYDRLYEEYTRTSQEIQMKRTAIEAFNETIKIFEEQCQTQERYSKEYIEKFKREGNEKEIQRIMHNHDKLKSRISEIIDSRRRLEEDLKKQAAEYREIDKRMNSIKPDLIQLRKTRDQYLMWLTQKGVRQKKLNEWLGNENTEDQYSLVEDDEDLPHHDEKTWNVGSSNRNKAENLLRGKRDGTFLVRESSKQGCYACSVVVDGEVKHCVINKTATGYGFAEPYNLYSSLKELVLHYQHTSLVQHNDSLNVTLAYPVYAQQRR

Legend:
Assay in all cases: co-IP; quantitative multiplex co-immunoprecipitation (QMI): IP antibodies on Luminex beads incubated overnight at 4 C with NP-40 lysate of P2 synaptosomes from mouse hippocampus, probed with biotinylated antibodies and streptavidin-PE, read on a flow cytometer; four ASD models (Shank3B-/-, Shank3 delta ex4-9+/-, Ube3a2xTG, E12.5 VPA) against littermate controls; only changes against control are told
[1] = target: T1, Ube3A (mouse (endogenous in mouse brain)) (UniProt O08759)
T1 sequence: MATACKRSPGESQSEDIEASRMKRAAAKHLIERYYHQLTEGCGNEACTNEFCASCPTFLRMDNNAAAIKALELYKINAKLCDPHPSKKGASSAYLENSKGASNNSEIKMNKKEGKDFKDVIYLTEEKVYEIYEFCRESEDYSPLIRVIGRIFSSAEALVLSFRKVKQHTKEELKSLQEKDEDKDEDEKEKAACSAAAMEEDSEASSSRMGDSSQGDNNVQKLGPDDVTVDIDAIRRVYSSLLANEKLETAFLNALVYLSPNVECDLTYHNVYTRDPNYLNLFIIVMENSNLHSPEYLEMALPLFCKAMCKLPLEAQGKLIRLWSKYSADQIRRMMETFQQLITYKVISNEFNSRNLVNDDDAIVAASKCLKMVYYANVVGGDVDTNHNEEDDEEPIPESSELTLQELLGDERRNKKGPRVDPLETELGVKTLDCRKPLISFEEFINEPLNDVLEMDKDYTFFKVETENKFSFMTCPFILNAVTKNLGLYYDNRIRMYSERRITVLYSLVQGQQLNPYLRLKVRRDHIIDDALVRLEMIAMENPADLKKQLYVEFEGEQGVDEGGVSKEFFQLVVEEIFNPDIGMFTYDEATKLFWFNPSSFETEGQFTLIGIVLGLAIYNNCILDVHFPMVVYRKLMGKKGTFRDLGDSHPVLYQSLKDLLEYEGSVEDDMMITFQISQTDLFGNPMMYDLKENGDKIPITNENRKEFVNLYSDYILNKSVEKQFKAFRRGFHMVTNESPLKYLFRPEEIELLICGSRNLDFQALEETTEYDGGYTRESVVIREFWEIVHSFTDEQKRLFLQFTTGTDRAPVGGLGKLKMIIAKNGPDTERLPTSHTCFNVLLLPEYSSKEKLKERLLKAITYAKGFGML

[2] = target: PI3K (p85alpha regulatory subunit) (mouse (endogenous in mouse brain)) (UniProt P26450)
[3] = target: T2, Homer1 (mouse (endogenous in mouse brain)) (UniProt Q9Z2Y3)
T2 sequence: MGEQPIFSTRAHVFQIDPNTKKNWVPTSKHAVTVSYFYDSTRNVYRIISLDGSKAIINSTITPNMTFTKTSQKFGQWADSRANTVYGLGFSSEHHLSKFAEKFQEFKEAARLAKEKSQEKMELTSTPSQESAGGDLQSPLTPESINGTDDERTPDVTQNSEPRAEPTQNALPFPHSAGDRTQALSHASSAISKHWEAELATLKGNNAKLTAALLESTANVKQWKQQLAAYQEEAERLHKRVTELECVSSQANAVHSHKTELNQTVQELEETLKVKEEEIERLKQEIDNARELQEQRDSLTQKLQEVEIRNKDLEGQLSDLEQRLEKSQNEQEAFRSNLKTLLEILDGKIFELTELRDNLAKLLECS

- binding [1]: binds
B1: Homer1 (protein, UniProt Q9Z2Y3 1-366)
chain: T2 sequence

B2: SynGAP1 (protein, UniProt F6SEU4 1-1340)
chain: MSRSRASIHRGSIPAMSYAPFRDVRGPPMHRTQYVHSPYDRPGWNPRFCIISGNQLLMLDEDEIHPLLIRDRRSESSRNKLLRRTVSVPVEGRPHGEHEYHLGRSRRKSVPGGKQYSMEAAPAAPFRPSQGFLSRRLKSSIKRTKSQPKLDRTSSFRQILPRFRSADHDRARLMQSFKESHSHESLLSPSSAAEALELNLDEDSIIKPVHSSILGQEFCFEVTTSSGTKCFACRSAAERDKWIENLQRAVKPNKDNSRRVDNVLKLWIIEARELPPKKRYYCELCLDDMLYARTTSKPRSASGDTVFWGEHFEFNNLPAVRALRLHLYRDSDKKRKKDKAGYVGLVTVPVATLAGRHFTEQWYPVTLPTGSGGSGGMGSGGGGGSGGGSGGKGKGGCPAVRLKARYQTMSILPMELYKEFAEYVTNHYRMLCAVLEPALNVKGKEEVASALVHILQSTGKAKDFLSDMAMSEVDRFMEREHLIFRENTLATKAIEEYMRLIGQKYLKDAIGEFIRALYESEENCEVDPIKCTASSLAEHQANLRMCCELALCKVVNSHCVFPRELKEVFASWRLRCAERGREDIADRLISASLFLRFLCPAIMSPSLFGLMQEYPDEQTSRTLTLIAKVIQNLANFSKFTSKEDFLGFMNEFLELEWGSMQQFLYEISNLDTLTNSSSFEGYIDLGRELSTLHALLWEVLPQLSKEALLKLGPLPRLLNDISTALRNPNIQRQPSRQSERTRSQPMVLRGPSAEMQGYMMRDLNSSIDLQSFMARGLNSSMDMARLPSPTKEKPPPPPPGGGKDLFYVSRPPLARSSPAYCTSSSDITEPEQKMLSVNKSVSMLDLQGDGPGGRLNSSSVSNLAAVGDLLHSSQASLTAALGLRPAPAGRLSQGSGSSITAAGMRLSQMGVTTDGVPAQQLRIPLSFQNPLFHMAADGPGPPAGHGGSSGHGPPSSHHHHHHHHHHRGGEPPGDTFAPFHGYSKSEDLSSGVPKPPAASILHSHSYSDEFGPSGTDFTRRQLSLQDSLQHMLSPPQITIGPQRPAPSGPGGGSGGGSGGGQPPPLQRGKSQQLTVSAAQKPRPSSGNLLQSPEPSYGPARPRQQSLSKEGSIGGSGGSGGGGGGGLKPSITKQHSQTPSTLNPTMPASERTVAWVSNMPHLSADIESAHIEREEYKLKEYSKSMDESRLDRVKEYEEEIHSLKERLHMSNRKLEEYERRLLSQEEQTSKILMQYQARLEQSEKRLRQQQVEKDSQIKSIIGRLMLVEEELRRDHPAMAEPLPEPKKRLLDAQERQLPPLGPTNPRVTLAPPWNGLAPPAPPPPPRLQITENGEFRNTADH
- binding [2]: binds
- binding [3]: binds
